From PMC12431657, “Discovery and mechanistic insights of dibenzoylmethane as a broad spectrum inhibitor of coronavirus” (PLOS Pathogens, 2025)
Structures can show the parent of a compound that is named as a salt. Where two headings read alike, the source gives them in different places. The whole screen tested about 3,300 compounds, of which about 60 (2%) showed an effect of 50% or more. Some of the results follow. Peptide text beside a SMILES is read from it.

Tested on: HCoV-OC43
Set-up: species or system RD; HTS, protection from HCoV-OC43 induced cell death, luminescent cell viability (CellCounting-Lite 2.0), inhibition rate
Settings: 24 h post infection, 1 h compound pre-incubation, 10 µM, inhibitor

Row | SMILES | OC43 Inhibition rate [%] | OC43 Inhibition rate (OC43 Inhibition rate, 24 h) [%]
1 | CCCCCCCCC[C@H](O)CC(=O)CCc1ccc(O)c(OC)c1 [10-Gingerol] | -1.5 | 
2 | CN[C@@H]1[C@H](O[C@H]2[C@H](O[C@H]3[C@H](O)[C@@H](O)[C@H](N=C(N)N)[C@@H](O)[C@@H]3N=C(N)N)O[C@@H](C)[C@]2(O)C=O)O[C@@H](CO)[C@H](O)[C@H]1O [Streptomycin (sulfate)] | -7.3 | 
3 | CC1(C)O[C@H]2[C@H](O)CC(C(=O)O)=C[C@H]2O1 [3,4-O-Isopropylidene-shikimic acid] | -0.8 | 
4 | COc1cc(CNC(=O)CCCC/C=C/C(C)C)ccc1O[C@@H]1O[C@H](CO)[C@@H](O)[C@H](O)[C@H]1O [Capsaicin β-D-glucopyranoside] | 0.3 | 
5 | C=C1[C@@H](O)[C@]23C[C@@H]1[C@@H](O)C[C@H]2[C@@]12C4[C@@H]3C[C@@H]1[C@@](C)(CC[C@@H]2O)CN4CC [12-Epinapelline] | 2.1 | 
6 | O=C(O)/C=C/c1ccc2c(c1)OCO2 [(E)-3,4-(Methylenedioxy)cinnamic acid] |  | -0.3
7 | CSCC[C@H](NC(C)=O)C(=O)O [N-Acetyl-L-methionine] | 0.8 | 
8 | CCCCCCCCCCCO [1-Undecanol] | -1.7 | 
9 | COc1cccc2c1C(=O)c1c(O)c3c(c(O)c1C2=O)C[C@@](O)(C(=O)CO)C[C@@H]3O[C@H]1C[C@H](N)[C@H](O)[C@H](C)O1 [Doxorubicin (hydrochloride)] | -6.5 | 
10 | COc1ccc2c3c1O[C@H]1C[C@@H](O)C=C[C@@]31CC[N+](C)([O-])C2 (some centres unmarked) [Galanthamine N-Oxide] | -1.6 | 
11 | C=CC(C)(C)O[C@@H]1O[C@H](CO)[C@@H](O)[C@H](O)[C@H]1O [Crenulatin] | -0.3 | 
12 | CC1(C)[C@H](OC(=O)c2ccccc2)CC[C@]2(C)C3=CC[C@@]4(C)[C@@H]5C[C@](C)(COC(=O)c6ccccc6)CC[C@]5(C)CC[C@]4(C)C3=CC[C@@H]12 [3,29-O-Dibenzoyloxykarounidiol] | -4.4 | 
13 | COc1cc(O)c2c(=O)c(O[C@@H]3O[C@H](CO[C@@H]4O[C@@H](C)[C@H](O)[C@@H](O)[C@H]4O)[C@@H](O)[C@H](O)[C@H]3O)c(-c3ccc(OC)c(O)c3)oc2c1 [Ombuoside] | -0.8 | 
14 | NC(N)=N[C@@H](CC(=O)O)C(=O)O [Guanidinosuccinic acid] | -0.1 | 
15 | O=C(O)/C=C/CCCCCCCCC(=O)O [Traumatic Acid] | 2.5 | 
16 | O=C(OC[C@H]1O[C@@H](OC(=O)c2cc(O)c(O)c(OC(=O)c3cc(O)c(O)c(O)c3)c2)[C@H](OC(=O)c2cc(O)c(O)c(OC(=O)c3cc(O)c(O)c(O)c3)c2)[C@@H](OC(=O)c2cc(O)c(O)c(OC(=O)c3cc(O)c(O)c(O)c3)c2)[C@@H]1OC(=O)c1cc(O)c(O)c(OC(=O)c2cc(O)c(O)c(O)c2)c1)c1cc(O)c(O)c(OC(=O)c2cc(O)c(O)c(O)c2)c1 [Tannic acid] | -1.3 | 

Row | SMILES | OC43 Inhibition rate [%] | OC43 Inhibition rate (OC43 Inhibition rate, 24 h) [%]
17 | COc1ccc2c(C)cc(=O)oc2c1O [7-Methoxy-4-methyl-coumarin-8-ol] | -0.7 | 
18 | CC1(C)Oc2cc3oc(=O)ccc3cc2C[C@@H]1O [Decursinol] | -0.4 | 
19 | CC(C)=CCc1c(O)cc2c(c1O)C(=O)C[C@@H](c1ccc(O)cc1)O2 [(2S)-6-Prenylnaringenin] | 54.9 | 
20 | O=C[C@@H](O)[C@H](O)[C@@H](O)CO [L-Xylose] | 0.3 | 
21 | O=c1cc(-c2ccc(O)cc2)oc2c([C@@H]3O[C@H](CO)[C@@H](O[C@@H]4O[C@H](CO)[C@@H](O)[C@H](O)[C@H]4O)[C@H](O)[C@H]3O)c(O)cc(O)c12 [4”-O-Glucosylvitexin] | 0.3 | 
22 | O=C(O)c1ccccc1C(=O)O [Phthalic acid] | -0.3 | 
23 | COC(=O)C1=CO[C@@H](O)[C@@H]2[C@@H](C)[C@@H](O)C[C@H]12 [Loganetin] | -0.7 | 
24 | O=C(O)c1cc(O)c2c(c1)C(=O)c1cccc(O)c1C2=O [Rhein] | -0.1 | 
25 | CCCCCCCCCCCCCCCC(=O)OC [Methyl palmitate] | -0.3 | 
26 | CCC12C=CCN3CC[C@@]4(c5ccc(OC)cc5N(C)[C@H]4[C@@](O)(C(=O)OC)[C@@H]1OC(C)=O)[C@@H]32 (some centres unmarked) [Vindoline] | -0.2 | 
27 | CC1=C[C@H]2[C@@H](CC1)[C@H](C)CC[C@H]2[C@@H](C)C(=O)O [Dihydroartemisinic acid] | 5.6 | 
28 | C[C@H]1CC[C@@]2(O)C(C)(C)[C@@H]3CC[C@@]2(C)[C@H]1C3 [Patchouli alcohol] | 0.2 | 
29 | CC1(C)C(=O)[C@]2(C)CC[C@H]1C2 [(-)-Fenchone] | 1.9 | 
30 | Oc1ccc([C@H]2COc3cc(O)ccc3C2)cc1 [(-)-(S)-Equol] | -0.2 | 
31 | C[C@H]1CCC/C=C/[C@@H]2C[C@H](O)C[C@H]2[C@H](O)/C=C/C(=O)O1 [Brefeldin A] | 20 | 
32 | CC(C)[C@H](NC(=O)CN)C(=O)O [Glycyl-L-valine] (H-Gly-Val-OH) | 0.2 | 

Reprinted at random: 2 compounds from above
Row | SMILES | OC43 Inhibition rate [%] | OC43 Inhibition rate (OC43 Inhibition rate, 24 h) [%]
22 | O=C(O)c1ccccc1C(=O)O [Phthalic acid] | -0.3 | 
21 | O=c1cc(-c2ccc(O)cc2)oc2c([C@@H]3O[C@H](CO)[C@@H](O[C@@H]4O[C@H](CO)[C@@H](O)[C@H](O)[C@H]4O)[C@H](O)[C@H]3O)c(O)cc(O)c12 [4”-O-Glucosylvitexin] | 0.3 | 
